Test [1] deals with endogenous SAG (H1299 cells) (human (endogenous in H1299)) (UniProt Q9UBF6). The experiment in a line: co-IP; endogenous proteins; H1299 whole cell extracts, untreated or 10 uM MG132 for 4 hrs; pre-cleared, overnight at 4 C with antibody against NEDD4-1 or SAG, IgG control; Western blotting. A general note: A western blot detects proteins with antibodies after separation by electrophoresis.

Amino acid sequences for entries named in this document (tags omitted).
UniProt Q9UBF6: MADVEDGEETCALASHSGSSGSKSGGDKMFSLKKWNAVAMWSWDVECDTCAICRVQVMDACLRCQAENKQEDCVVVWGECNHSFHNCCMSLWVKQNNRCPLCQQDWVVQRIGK
UniProt P46934: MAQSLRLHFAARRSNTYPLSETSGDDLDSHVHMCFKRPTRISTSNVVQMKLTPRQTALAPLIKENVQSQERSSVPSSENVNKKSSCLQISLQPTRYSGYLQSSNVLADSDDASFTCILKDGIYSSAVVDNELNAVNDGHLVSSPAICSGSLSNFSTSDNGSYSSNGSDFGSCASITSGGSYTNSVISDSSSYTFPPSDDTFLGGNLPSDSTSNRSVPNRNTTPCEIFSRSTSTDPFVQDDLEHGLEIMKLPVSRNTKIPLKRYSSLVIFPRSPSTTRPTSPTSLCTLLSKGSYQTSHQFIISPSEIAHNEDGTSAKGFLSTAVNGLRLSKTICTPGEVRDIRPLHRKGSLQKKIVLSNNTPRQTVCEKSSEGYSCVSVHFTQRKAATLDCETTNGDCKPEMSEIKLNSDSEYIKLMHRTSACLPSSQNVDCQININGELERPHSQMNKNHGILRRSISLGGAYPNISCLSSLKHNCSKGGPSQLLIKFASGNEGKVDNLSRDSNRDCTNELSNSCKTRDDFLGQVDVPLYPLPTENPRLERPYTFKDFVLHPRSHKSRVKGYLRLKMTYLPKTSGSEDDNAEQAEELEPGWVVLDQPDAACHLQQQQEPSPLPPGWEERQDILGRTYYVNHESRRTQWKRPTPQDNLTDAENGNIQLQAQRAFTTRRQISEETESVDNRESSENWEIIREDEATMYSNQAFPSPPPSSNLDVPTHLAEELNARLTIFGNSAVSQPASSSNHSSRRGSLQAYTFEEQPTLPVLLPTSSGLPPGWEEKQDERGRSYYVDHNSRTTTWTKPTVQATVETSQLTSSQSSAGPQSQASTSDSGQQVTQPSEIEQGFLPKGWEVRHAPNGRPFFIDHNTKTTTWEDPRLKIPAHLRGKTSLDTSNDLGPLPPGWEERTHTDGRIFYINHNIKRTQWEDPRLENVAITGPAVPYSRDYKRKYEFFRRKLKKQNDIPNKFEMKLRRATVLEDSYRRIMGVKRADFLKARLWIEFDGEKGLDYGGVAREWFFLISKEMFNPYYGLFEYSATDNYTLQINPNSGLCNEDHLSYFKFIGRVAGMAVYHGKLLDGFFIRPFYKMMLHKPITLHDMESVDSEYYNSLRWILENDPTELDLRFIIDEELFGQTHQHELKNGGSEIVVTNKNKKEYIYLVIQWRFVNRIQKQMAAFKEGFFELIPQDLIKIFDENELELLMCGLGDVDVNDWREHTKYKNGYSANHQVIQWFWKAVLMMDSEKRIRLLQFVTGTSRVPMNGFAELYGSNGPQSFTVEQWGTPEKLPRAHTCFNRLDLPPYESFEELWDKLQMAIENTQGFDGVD
UniProt Q93034: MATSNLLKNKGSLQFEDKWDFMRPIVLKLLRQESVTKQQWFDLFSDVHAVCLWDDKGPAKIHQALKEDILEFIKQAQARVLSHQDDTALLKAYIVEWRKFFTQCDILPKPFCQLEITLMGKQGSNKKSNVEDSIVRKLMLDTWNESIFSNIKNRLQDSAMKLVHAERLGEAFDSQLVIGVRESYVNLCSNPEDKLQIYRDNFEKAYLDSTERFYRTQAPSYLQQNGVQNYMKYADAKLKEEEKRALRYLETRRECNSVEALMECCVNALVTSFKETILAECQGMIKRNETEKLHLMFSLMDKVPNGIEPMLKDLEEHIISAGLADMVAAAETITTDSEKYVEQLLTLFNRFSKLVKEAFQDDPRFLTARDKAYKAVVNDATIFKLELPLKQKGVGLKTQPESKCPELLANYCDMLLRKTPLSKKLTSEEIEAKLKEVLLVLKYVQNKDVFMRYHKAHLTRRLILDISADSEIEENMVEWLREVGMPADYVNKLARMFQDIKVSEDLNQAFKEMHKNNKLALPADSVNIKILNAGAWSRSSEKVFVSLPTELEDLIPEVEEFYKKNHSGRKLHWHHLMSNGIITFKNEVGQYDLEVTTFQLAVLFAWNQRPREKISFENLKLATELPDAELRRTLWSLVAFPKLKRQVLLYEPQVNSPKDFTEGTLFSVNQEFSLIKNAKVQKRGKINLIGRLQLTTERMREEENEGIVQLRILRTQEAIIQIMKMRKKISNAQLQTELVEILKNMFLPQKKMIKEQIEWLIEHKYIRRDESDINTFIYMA

Test [2] addresses FLAG-SAG (Sensitive to apoptosis gene, full length) (UniProt Q9UBF6). The experiment in a line: co-IP; 293 cells transiently transfected with FLAG-SAG or FLAG-ROC1 (pCDNA3.1 vector control); lysates immunoprecipitated with FLAG antibody/beads, blot for endogenous NEDD4-1.
Test [3] has as its target endogenous NEDD4-1 (H1299 cells) (human (endogenous in H1299)) (UniProt P46934). The test can be described thus: co-IP; endogenous proteins; H1299 whole cell extracts, untreated or 10 uM MG132 for 4 hrs; pre-cleared, overnight at 4 C with antibody against NEDD4-1 or SAG, IgG control; Western blotting.

The values below come from article PMC4196160.

These are yes or no findings as the source states them, for the method shown. Binding seen in cells or lysates may run through a third protein. Some binding calls cover weakened binding; strength is not graded here.

Regarding “endogenous CUL-5 (H1299 cells) (from UniProt Q93034 1-780)”, the binding entry in test [1] was “binds”.
Regarding “endogenous NEDD4-1 (293 cells) (from UniProt P46934 1-1319)”, the binding entry in test [2] is “binds”.
Consider “endogenous NEDD4-1 (H1299 cells) (from UniProt P46934 1-1319)”, for which, in test [1], the binding result is on record as “binds”.
In the case of “endogenous SAG (H1299 cells) (from UniProt Q9UBF6 1-113)”, the binding entry in test [3] is on record as “binds”.
